Laboratory results: PubChem BioAssay AID1224830 (NIAID, 2016)
The deposit covers about 18,000 reagents; shown is a random part of them. Over the whole deposit, about 2,900 (16%) got an active call. 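Calls are made per well; low scores hint the gene aids the LPS response, high scores that it dampens it.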 Entries without a mark were called inactive. Repeated entries: four replicate wells of each siRNA pool.

Purpose: 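Regulators of TLR4 signalling towards TNF-alpha in macrophage-like cells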 (primary screen)
Cells: human THP-1 monocytic leukaemia cells, TNF dual-luciferase reporter clone, PMA-differentiated to macrophage-like cells
Reagents: siRNA pool against human genes, 50 nM
Duration: LPS for 4 h, given about 3 days after siRNA transfection
Challenge: bacterial LPS (TLR4 ligand), 10 ng/ml
Measurement: 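Ratio of firefly to renilla light, scaled to the plate median and expressed as a robust z-score per replicate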
Reading the numbers: TNF reporter robust z-score: higher = stronger TNF reporter response to LPS
Rule for the call: 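Each well counts as active if its z-score is over 2.8 or under -1.5; controls are left without a call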

Target gene | TNF reporter robust z-score
RRN3 | 1.33
RRN3 | 0.73
RRN3 | 1.12
RRN3 | 1.01
MON1B | 0.39
MON1B | -0.4
MON1B | 0.25
MON1B | 1.17
TEAD3 | -0.13
TEAD3 | -0.07
TEAD3 | -1.05
TEAD3 | 0.96
NPY5R | -0.25
NPY5R | -0.71
NPY5R | -0.15
NPY5R | -0.31
SLC23A2 | 0.07
SLC23A2 | -0.86
SLC23A2 | -0.68
SLC23A2 | 0.34
NRROS | 0.25
NRROS | -0.32
NRROS | -0.9
NRROS | -0.43
GFOD2 | 0.89
GFOD2 | 0.6
GFOD2 | 0.59
TRIM28 | -1.2
TRIM28 | 0.64
TRIM28 | -0.3
TRIM28 | -0.08
DPP9 | 3.14 (active)
DPP9 | 0.94
DPP9 | -0.36
DPP9 | 1.07
UBE3A | -0.08
UBE3A | 0.77
UBE3A | 0.5
UBE3A | 0.38
CCNP | -1.18
CCNP | -0.37
CCNP | 0.11
CCNP | 0.41
MTCL1 | 1.46
MTCL1 | 0.89
MTCL1 | 0.4
MTCL1 | 0.61
HTRA3 | 1.45
HTRA3 | 0.85
HTRA3 | -0.15
HTRA3 | -0.31
STAU1 | 2.19
STAU1 | 3.22 (active)
STAU1 | 2.16
STAU1 | 1.82
POLK | -0.92
POLK | -0.93
POLK | -1.24
POLK | -0.05
ANKRD27 | 0.05
ANKRD27 | 0.59
ANKRD27 | 0.67
ANKRD27 | 0.93

Active calls (from the list above):
Target gene | TNF reporter robust z-score
DPP9 | 3.14 (active)
STAU1 | 3.22 (active)

Continued.
Target gene | TNF reporter robust z-score
SIRT3 | 0.56
SIRT3 | 1.1
SIRT3 | -0.35
SIRT3 | 0.36
GRAMD1A | 0.86
GRAMD1A | 0.49
GRAMD1A | -0.91
GRAMD1A | -0.58
GRAMD1A | 1.4
GRAMD1A | 1.37
GRAMD1A | 0.8
GRAMD1A | 2.29
ANKRD40 | -0.12
ANKRD40 | -0.36
ANKRD40 | -0.6
ANKRD40 | 0.18
SERPINB4 | 0.73
SERPINB4 | 0.62
SERPINB4 | 0.69
SERPINB4 | 2.32
FGF17 | -0.86
FGF17 | -0.91
FGF17 | -1.19
FGF17 | -0.92
RARS2 | -1.85 (active)
RARS2 | -1.09
RARS2 | -1.06
RARS2 | -0.45
CCDC158 | 0.29
CCDC158 | 0.13
CCDC158 | -0.15
CCDC158 | -0.14
DNAJB2 | -1.35
DNAJB2 | -0.21
DNAJB2 | -0.77
DNAJB2 | -0.98
YBEY | -1.06
YBEY | 0.1
YBEY | -0.21
YBEY | -0.65
TMC4 | 1.86
TMC4 | 0.53
TMC4 | 1.55
TMC4 | 1.24
ADSL | 0.01
ADSL | -0.41
ADSL | 0.03
ADSL | 0.82
